Reference: the supplement of paper PMC11732987, “Enantioselective OTUD7B fragment discovery through chemoproteomics screening and high-throughput optimisation” (Communications Chemistry, 2025)
Some of the results follow. The data scatter; read single values as rough.

Protein sequences, listed by entry. Tags and fused reporters are not part of them. Lines headed by an entry give the natural chain unless they say otherwise; changes in a name come on top. Residues count along the entry.
UniProt Q9Y6D6: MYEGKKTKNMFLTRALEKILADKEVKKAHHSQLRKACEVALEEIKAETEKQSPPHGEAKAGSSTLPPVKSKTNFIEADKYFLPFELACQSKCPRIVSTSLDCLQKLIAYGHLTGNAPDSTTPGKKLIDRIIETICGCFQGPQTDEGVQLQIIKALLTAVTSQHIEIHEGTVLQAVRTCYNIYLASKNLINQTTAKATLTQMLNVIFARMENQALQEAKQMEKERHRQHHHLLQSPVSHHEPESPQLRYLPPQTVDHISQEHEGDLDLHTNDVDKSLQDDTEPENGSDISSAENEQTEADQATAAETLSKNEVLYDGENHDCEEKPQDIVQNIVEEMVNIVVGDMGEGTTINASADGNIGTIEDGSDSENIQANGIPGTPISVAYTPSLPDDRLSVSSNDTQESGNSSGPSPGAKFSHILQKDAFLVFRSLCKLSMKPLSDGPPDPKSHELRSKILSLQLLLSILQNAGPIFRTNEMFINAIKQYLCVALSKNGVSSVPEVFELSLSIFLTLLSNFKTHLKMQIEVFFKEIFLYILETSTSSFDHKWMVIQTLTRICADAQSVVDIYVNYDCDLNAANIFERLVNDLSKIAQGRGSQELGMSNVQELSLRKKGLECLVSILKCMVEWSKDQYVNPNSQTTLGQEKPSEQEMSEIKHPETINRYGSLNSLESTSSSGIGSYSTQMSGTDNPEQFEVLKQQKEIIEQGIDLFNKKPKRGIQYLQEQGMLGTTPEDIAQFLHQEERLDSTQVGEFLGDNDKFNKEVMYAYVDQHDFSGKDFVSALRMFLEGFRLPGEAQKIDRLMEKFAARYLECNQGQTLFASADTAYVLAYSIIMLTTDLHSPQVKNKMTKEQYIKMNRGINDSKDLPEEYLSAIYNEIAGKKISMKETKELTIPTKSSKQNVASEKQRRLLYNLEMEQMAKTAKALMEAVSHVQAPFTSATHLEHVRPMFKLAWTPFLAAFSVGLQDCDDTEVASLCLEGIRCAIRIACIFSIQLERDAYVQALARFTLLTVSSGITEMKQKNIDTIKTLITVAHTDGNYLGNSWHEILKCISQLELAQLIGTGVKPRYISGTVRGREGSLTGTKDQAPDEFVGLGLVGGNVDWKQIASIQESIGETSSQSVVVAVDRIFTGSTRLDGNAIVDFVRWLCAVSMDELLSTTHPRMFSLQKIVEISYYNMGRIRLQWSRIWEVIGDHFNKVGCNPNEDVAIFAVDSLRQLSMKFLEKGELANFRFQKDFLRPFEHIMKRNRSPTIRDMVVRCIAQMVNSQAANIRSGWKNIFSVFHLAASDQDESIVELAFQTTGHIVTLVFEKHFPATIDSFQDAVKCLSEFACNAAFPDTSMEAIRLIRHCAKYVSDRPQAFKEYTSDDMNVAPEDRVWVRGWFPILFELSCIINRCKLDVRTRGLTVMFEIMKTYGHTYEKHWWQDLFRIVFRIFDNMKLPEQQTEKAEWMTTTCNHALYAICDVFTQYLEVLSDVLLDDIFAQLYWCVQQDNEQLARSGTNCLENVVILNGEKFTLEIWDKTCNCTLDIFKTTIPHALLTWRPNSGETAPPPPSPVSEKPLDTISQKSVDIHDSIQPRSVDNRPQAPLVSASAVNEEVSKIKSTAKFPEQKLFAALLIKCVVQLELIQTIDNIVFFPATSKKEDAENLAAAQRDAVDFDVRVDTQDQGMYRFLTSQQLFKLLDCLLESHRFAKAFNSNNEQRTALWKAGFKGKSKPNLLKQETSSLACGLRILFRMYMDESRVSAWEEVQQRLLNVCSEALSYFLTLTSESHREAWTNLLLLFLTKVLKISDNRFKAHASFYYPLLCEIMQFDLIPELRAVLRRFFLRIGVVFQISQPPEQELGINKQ
UniProt P59780, 42-62: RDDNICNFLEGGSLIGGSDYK
UniProt Q9NQW6: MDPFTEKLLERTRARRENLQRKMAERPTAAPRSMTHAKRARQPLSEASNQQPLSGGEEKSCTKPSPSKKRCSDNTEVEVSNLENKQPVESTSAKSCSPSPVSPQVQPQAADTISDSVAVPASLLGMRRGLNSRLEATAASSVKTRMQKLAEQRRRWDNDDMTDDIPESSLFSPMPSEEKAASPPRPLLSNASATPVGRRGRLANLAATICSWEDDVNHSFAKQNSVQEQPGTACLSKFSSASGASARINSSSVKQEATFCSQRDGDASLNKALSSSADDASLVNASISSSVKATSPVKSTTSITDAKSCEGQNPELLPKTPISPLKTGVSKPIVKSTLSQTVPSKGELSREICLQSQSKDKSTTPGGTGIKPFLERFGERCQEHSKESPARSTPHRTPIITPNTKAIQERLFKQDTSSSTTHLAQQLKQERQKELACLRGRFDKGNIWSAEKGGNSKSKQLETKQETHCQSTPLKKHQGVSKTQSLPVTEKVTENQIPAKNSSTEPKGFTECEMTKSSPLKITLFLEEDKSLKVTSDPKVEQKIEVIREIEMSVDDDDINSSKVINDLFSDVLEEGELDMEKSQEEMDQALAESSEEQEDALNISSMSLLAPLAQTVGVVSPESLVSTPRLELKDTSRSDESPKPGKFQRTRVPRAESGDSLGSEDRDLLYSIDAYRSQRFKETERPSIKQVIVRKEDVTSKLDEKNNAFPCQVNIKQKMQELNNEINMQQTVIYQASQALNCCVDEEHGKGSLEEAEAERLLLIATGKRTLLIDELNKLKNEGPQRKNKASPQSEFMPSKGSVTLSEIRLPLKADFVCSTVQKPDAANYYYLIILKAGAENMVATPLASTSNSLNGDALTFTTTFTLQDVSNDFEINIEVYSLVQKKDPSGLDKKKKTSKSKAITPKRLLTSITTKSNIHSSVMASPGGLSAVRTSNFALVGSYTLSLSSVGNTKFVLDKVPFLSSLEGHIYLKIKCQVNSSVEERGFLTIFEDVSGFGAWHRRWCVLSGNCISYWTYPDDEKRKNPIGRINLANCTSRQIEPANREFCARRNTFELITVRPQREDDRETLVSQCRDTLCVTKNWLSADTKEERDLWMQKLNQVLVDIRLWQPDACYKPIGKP
UniProt P25054, whole entry, looked up: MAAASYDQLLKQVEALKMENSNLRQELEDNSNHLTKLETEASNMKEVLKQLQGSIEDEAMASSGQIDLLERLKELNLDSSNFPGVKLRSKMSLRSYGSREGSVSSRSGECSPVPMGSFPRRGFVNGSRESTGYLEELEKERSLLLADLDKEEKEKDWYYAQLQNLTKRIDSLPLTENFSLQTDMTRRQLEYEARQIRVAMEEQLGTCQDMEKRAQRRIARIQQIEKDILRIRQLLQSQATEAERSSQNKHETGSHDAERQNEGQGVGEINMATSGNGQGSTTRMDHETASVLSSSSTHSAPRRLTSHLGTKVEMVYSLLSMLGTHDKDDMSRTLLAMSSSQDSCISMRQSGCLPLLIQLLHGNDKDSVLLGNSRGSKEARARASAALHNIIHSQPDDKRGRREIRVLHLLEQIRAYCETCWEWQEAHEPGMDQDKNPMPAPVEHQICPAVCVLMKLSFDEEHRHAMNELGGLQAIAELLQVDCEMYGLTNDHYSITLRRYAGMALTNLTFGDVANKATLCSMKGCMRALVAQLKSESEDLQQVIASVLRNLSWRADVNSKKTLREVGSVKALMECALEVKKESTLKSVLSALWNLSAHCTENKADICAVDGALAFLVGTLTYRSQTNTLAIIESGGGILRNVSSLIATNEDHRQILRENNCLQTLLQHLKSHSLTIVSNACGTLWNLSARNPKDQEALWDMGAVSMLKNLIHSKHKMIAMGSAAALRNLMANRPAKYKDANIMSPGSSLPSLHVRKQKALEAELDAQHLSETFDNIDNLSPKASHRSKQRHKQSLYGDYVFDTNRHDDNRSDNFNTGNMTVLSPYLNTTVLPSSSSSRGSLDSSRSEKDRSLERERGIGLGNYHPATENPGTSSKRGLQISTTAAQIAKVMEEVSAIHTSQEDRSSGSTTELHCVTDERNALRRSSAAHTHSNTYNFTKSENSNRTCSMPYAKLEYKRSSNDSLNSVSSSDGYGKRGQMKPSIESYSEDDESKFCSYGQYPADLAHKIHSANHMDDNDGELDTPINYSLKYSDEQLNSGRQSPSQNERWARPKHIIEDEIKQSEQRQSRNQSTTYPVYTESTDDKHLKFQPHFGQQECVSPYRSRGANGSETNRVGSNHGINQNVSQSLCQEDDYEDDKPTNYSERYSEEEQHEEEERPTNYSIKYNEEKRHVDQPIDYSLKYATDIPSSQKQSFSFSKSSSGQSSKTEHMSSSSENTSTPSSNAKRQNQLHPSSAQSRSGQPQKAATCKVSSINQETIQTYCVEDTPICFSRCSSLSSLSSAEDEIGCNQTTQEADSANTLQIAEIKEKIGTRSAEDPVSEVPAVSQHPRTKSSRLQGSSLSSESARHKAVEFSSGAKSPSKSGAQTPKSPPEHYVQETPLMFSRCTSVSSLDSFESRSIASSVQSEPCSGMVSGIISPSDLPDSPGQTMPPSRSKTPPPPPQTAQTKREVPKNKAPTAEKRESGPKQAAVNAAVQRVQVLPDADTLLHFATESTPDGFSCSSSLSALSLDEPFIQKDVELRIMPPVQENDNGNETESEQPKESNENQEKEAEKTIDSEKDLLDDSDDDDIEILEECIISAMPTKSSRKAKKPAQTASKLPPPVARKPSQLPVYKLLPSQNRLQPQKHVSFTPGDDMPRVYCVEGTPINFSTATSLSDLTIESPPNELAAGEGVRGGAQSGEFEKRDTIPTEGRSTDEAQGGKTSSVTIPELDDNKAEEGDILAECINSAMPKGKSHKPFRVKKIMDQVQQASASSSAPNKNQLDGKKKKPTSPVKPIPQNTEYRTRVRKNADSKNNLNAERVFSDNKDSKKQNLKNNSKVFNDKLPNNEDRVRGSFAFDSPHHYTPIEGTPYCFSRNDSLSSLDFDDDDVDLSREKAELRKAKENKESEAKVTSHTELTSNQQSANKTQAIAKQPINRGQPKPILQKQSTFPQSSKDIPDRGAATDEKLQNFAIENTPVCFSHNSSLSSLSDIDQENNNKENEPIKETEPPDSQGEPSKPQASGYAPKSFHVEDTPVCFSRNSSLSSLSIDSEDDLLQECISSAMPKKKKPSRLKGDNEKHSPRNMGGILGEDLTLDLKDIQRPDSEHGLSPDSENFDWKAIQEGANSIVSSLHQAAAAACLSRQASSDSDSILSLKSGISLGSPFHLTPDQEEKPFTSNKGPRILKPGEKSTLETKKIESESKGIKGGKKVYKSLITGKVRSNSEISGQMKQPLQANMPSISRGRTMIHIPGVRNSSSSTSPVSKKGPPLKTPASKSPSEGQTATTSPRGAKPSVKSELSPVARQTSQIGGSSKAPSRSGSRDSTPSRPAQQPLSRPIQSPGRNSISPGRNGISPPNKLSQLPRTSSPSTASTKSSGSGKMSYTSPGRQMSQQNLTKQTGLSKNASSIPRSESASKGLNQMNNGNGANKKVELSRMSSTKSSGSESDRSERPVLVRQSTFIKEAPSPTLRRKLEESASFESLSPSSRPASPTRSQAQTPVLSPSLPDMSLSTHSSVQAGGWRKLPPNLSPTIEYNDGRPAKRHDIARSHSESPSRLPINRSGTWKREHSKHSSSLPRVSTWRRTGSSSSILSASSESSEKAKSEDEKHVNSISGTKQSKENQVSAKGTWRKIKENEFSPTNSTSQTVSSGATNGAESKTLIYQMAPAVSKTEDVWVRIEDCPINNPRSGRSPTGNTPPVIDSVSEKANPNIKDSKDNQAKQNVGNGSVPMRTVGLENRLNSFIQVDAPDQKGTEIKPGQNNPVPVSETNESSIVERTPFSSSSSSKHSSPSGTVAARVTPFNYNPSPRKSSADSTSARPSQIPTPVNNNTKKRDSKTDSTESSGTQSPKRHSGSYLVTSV
UniProt Q9NWX5, 135-156: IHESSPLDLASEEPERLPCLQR
UniProt Q9UPS8, 447-467: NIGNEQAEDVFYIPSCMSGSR
UniProt Q6ZW76, 360-380: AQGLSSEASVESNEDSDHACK
UniProt Q9H2C2, 14-33: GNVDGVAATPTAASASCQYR
UniProt Q68CP9, 1312-1338: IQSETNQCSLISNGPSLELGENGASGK
UniProt O95671: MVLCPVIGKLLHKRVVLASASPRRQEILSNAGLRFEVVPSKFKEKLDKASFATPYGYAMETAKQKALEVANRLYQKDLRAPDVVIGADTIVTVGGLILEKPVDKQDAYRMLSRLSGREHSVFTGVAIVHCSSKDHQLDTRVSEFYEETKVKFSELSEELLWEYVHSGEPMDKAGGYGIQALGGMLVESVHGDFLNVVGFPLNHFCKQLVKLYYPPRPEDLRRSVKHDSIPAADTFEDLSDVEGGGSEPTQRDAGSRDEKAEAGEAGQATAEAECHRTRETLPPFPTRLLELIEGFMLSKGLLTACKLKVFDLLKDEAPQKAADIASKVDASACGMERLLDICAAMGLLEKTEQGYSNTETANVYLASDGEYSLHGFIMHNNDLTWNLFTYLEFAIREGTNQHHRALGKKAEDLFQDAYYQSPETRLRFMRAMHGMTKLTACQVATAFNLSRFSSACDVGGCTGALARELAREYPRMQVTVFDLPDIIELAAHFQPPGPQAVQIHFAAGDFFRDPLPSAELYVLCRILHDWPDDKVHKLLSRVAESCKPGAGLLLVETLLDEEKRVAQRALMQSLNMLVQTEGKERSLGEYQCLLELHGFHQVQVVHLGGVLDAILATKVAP

Key:
[1] = compound: ClCC(=O)N[C@@H]1CCCc2ccccc12; experiment: log2 mean competition ratio of IA-DTB cysteine labelling (DMSO/compound) (log2 ratio); higher = stronger cysteine engagement by compound; conditions: treatment time: 4 h, cell line lysate: HEK293T
Protocol: (§1)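 IA-DTB competitive cysteine chemoproteomics in HEK293T RIPA lysate. Lysates were treated with compound 29 or 30 at 50 or 200 µM for 4 h, then IA-DTB (500 µM, 1 h), trypsin-digested, NeutrAvidin-enriched and analysed by diaPASEF. Competition ratio = intensity DMSO / intensity compound (n=4 treated, n=64 DMSO); binding: mean log2 CR ≥ 1 and p ≤ 0.05 plus QC filters. Target is the cysteine site.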

[2] = compound: ClCC(=O)N[C@H]1CCCc2ccccc12; experiment: as above; conditions: treatment time: 4 h, cell line lysate: HEK293T
Protocol: as §1

Target | log2 mean competition ratio ([1]; 50 µM) | log2 mean competition ratio ([1]; 200 µM) | log2 mean competition ratio ([2]; 50 µM) | log2 mean competition ratio ([2]; 200 µM)
ARMC6 C484 (UniProt Q6NXE6) | -0.0109 | 0.0522 | 0.281 | 0.0829
ARFGEF1 C102 (UniProt Q9Y6D6) | 0.286 | 0.428 | 0.518 | 0.385
ARFGAP3 C312 (UniProt Q9NP61) | 0.247 | 0.0826 | 0.0302 | 0.0665
ARL5B C132 (UniProt Q96KC2) | -0.0434 | 0.205 | -0.299 | 0.466
AP3S2 C47 (UniProt P59780) | -0.0238 | -0.344 | -0.335 | -0.186
ANLN C1076 (UniProt Q9NQW6) | -0.0446 | 0.645 | -0.0892 | 0.667
ANLN C1117 (UniProt Q9NQW6) | 0.141 | -0.0191 | -0.227 | -0.119
APC C2664 (UniProt P25054) | 0.0728 | -0.352 | -0.153 | -0.159
ASB6 C153 (UniProt Q9NWX5) | 0.0932 | 0.789 | 0.0529 | 0.769
ARFGEF3 C377 | -0.105 | 0.322 | 0.195 | -0.115
ARHGAP19 C340 (UniProt Q14CB8) | -0.148 | 0.111 | -0.69 | 0.114
ARIH2 C340 (UniProt O95376) | -0.231 | 0.144 | -0.288 | 0.0644
ANKRD26 C462 (UniProt Q9UPS8) | -0.0294 | -0.403 | 0.82 | 0.177
ASIC1 C497 | 0.245 | 0.0895 | 0.177 | 0.0587
ARIH1 C347 (UniProt Q9Y4X5) | -0.45 | -0.312 | -0.475 | -0.43
ARL6 C22 (UniProt Q9H0F7) | 0.21 | 0.00514 | -0.173 | 0.167
ARL6 C148 (UniProt Q9H0F7) | 0.304 | 0.319 | 0.051 | 0.0509
ANXA2 C9 | -0.0731 | 0.0273 | -0.369 | 0.0771
ARRB2 C141 (UniProt P32121) | -0.241 | 0.00972 | -0.479 | 0.00323
ARHGAP26 C142 (UniProt Q9UNA1) | -0.105 | -0.142 | -0.0121 | 0.0874
ARHGEF39 C10 | 0.0889 | 0.611 | 0.147 | 0.469
ANKS3 C379 (UniProt Q6ZW76) | 0.385 | 0.0363 | -0.0738 | 0.275
ANLN C1081 (UniProt Q9NQW6) | -0.213 | 0.323 | 0.114 | 0.654
ANKLE2 C254 (UniProt Q86XL3) | 0.0789 | 0.0222 | -0.0174 | 0.0323

Target | log2 mean competition ratio ([1]; 50 µM) | log2 mean competition ratio ([1]; 200 µM) | log2 mean competition ratio ([2]; 50 µM) | log2 mean competition ratio ([2]; 200 µM)
ANLN C234 (UniProt Q9NQW6) | -0.113 | 0.168 | 0.146 | 0.253
ARV1 C30 (UniProt Q9H2C2) | -0.0108 | -0.0491 | 0.799 | -0.0076
APRT C153 (UniProt P07741) | -0.582 | -0.308 | 0.438 | -0.242
AS3MT C32 | 0.0123 | 0.0707 | 0.00182 | -0.067
ASCC3 C2101 (UniProt Q8N3C0) | 0.035 | -0.187 | -0.036 | -0.318
ARL15 C53 (UniProt Q9NXU5) | -0.319 | 0.186 | 0.19 | 0.14
ANKRD52 C633 (UniProt Q8NB46) | 0.327 | 0.0497 | -0.338 | -0.389
APC C207 (UniProt P25054) | -0.291 | -0.472 | -0.0246 | -0.403
ARFGAP3 C241 (UniProt Q9NP61) | -0.0483 | -0.0243 | -0.275 | -0.0126
ARFGEF3 C1018 | 0.284 | -0.25 | 0.159 | -0.117
ARHGEF17 C1479 | -0.155 | 0.193 | -0.255 | 0.0812
ARFGEF1 C1503 (UniProt Q9Y6D6) | 0.441 | -0.206 | 0.0457 | -0.173
ANKLE2 C350 (UniProt Q86XL3) | -0.0579 | 0.124 | 0.214 | 0.166
ARNT C62 (UniProt P27540) | -0.235 | 0.0498 | -0.311 | 0.263
ARID2 C1319 (UniProt Q68CP9) | -0.281 | 0.125 | 0.612 | -0.00421
APC C914 (UniProt P25054) | -0.258 | -0.118 | -0.299 | -0.17
ARHGEF40 C556 (UniProt Q8TER5) | -0.176 | -0.291 | -0.0993 | 0.0381
APAF1 C450 (UniProt O14727) | 0.285 | -0.165 | -0.0771 | -0.233
ARID2 C382 (UniProt Q68CP9) | -0.0362 | 0.0746 | -0.0516 | 0.0851
ASMTL C274 (UniProt O95671) | -0.213 | -0.0538 | -0.144 | -0.0622
ARRB1 C150 (UniProt P49407) | -0.143 | 0.119 | -0.69 | -0.0506
APBB2 C446 (UniProt Q92870) | -0.0555 | 0.0954 | 0.334 | 0.0693
ANKS6 C17 (UniProt Q68DC2) | 0.166 | -0.224 | -0.156 | 0.0411
ARHGAP17 C53 (UniProt Q68EM7) | -0.0804 | -0.0336 | -0.292 | -0.0379

Part of the list above, as tab-separated lines:
Target	log2 mean competition ratio ([1]; 50 µM)	log2 mean competition ratio ([1]; 200 µM)	log2 mean competition ratio ([2]; 50 µM)	log2 mean competition ratio ([2]; 200 µM)
AS3MT C32	0.0123	0.0707	0.00182	-0.067
ASCC3 C2101 (UniProt Q8N3C0)	0.035	-0.187	-0.036	-0.318
ANKRD52 C633 (UniProt Q8NB46)	0.327	0.0497	-0.338	-0.389
APC C207 (UniProt P25054)	-0.291	-0.472	-0.0246	-0.403
ARHGEF17 C1479	-0.155	0.193	-0.255	0.0812
ARFGEF1 C1503 (UniProt Q9Y6D6)	0.441	-0.206	0.0457	-0.173
ARNT C62 (UniProt P27540)	-0.235	0.0498	-0.311	0.263
APC C914 (UniProt P25054)	-0.258	-0.118	-0.299	-0.17
ARHGEF40 C556 (UniProt Q8TER5)	-0.176	-0.291	-0.0993	0.0381
APAF1 C450 (UniProt O14727)	0.285	-0.165	-0.0771	-0.233
APBB2 C446 (UniProt Q92870)	-0.0555	0.0954	0.334	0.0693
ANKS6 C17 (UniProt Q68DC2)	0.166	-0.224	-0.156	0.0411
ARHGAP17 C53 (UniProt Q68EM7)	-0.0804	-0.0336	-0.292	-0.0379
